Data published in paper PMC8845250.
No constants are given. Whether binding was seen depends on the method and setting. Binding seen in cells or lysates may run through a third protein. Some entries that bind do so weakly or less than the wild type.

Biological target: T1, CDCA8 (human (endogenous in C4-2)) (UniProt Q53HL2)
T1 sequence: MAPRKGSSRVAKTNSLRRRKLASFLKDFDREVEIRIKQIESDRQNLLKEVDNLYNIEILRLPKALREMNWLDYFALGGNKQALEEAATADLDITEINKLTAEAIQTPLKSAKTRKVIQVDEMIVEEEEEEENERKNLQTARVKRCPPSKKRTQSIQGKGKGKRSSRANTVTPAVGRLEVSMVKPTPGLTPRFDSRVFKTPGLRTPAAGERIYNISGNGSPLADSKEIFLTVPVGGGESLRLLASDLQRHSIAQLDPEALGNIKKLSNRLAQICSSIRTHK
Assay: co-IP; C4-2 whole cell lysate (1.0 mg protein) incubated with CDCA8 antibody (control: IgG) overnight at 4 C, beads 2 h at 4 C, SDS-PAGE and western blot

B1: UAP1-like-1 (UAP1L1) (protein, UniProt Q3KQV9 1-507)
chain: MASEQDVRARLQRAGQEHLLRFWAELAPEPRAALLAELALLEPEALREHCRRAAEACARPHGPPPDLAARLRPLPPERVGRASRSDPETRRRWEEEGFRQISLNKVAVLLLAGGQGTRLGVTYPKGMYRVGLPSRKTLYQLQAERIRRVEQLAGERHGTRCTVPWYVMTSEFTLGPTAEFFREHNFFHLDPANVVMFEQRLLPAVTFDGKVILERKDKVAMAPDGNGGLYCALEDHKILEDMERRGVEFVHVYCVDNILVRLADPVFIGFCVLQGADCGAKVVEKAYPEEPVGVVCQVDGVPQVVEYSEISPETAQLRASDGSLLYNAGNICNHFFTRGFLKAVTREFEPLLKPHVAVKKVPYVDEEGNLVKPLKPNGIKMEKFVFDVFRFAKNFAALEVLREEEFSPLKNAEPADRDSPRTARQALLTQHYRWALRAGARFLDAHGAWLPELPSLPPNGDPPAICEISPLVSYSGEGLEVYLQGREFQSPLILDEDQAREPQLQES
B1 was tested, and the binding was “binds”.
